No constants are given. Whether binding was seen depends on the method and setting. Binding seen in cells or lysates may run through a third protein. Some results given as binding are weak or reduced against the parent protein; the word gives no strength.
Key:
[1] = biological target: Myc-Cdk5rap2 (CDK5 Regulatory Subunit Associated Protein 2), in HEK293 (not stated (human or mouse cDNA cloned)) (UniProt Q96SN8); experiment: co-IP; HA-Arl2 and Myc-Cdk5rap2 overexpressed in HEK293 cells; Pierce IP lysis buffer with protease inhibitors; lysate with HA or Myc antibody overnight at 4°C, protein A/G beads 3 h at 4°C, washed with PBS; western blot
[2] = biological target: HA-Arl2 (ADP ribosylation factor-like GTPase 2) (human) (UniProt P36404); experiment: as above

By UniProt entry, the sequences of proteins in these tests, tags left out.
UniProt Q96SN8: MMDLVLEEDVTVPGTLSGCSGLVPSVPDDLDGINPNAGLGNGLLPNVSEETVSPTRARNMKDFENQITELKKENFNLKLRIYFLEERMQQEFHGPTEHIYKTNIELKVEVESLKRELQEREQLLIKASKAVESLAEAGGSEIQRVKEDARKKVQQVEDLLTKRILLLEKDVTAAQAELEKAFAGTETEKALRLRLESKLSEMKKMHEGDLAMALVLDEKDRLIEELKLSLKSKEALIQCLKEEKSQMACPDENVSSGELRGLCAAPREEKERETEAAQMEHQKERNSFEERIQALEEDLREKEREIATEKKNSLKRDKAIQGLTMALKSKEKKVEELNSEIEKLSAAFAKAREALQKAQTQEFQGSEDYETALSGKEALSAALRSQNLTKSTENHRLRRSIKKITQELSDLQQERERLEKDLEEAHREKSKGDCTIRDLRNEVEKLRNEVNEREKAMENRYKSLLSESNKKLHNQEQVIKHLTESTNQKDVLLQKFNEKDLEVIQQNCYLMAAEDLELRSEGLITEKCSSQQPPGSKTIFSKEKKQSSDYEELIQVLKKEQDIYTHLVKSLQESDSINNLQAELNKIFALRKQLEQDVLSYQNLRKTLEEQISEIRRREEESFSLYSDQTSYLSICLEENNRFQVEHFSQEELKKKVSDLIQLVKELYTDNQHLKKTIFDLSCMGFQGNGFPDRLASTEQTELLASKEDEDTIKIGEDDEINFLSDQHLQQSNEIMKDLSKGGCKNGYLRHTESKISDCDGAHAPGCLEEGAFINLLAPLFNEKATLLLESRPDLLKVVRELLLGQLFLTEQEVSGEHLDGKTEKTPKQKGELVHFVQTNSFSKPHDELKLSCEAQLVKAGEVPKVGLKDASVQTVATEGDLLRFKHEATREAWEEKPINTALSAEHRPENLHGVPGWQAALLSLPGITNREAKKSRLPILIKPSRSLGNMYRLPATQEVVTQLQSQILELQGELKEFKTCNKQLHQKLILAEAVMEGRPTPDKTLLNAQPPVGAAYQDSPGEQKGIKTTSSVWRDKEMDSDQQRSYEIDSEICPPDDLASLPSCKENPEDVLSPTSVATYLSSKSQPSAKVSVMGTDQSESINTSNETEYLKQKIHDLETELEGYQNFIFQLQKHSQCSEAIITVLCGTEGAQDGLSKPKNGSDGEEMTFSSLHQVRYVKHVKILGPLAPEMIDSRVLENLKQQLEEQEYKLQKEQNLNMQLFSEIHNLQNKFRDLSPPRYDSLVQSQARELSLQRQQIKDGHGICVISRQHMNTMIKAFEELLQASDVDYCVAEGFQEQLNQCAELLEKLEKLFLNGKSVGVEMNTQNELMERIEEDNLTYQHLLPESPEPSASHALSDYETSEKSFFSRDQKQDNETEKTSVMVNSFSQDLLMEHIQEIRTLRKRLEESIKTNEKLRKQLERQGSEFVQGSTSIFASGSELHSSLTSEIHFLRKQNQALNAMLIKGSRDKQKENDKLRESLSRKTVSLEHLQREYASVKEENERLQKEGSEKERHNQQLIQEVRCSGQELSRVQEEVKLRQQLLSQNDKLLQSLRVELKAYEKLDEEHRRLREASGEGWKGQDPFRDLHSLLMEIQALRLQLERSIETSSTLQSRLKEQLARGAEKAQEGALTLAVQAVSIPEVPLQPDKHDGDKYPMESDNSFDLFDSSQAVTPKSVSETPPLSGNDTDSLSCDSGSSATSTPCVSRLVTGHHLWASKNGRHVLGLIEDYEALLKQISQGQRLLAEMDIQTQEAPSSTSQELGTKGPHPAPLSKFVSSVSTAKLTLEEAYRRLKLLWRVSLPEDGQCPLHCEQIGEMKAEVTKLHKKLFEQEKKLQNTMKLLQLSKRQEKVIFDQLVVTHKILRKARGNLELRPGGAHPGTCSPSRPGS
UniProt P36404: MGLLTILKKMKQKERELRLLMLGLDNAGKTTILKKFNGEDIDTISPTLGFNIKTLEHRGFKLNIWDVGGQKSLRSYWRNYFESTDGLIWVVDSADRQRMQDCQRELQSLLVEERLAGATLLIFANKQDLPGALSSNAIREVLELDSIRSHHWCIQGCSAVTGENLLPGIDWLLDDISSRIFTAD

binding [1] | binding [2] | Substance
binds |  | HA-Arl2 (ADP ribosylation factor-like GTPase 2) (from UniProt P36404 1-184)
 | binds | Myc-Cdk5rap2 (CDK5 Regulatory Subunit Associated Protein 2), in HEK293 (from UniProt Q96SN8 1-1893)

From paper PMC11321591
